No constants are given. Whether binding was seen depends on the method and setting. Binding seen in cells or lysates may run through a third protein. Some results given as binding are weak or reduced against the parent protein; the word gives no strength.
Molecular target: tuberous sclerosis complex 2 (TSC2) tumor suppressor (human (endogenous in HEK-293)) (UniProt P49815)
Experiment: co-IP; lysates of transfected HEK-293 cells (expressing CD44-CP1 or Flag-CP1; Flag-TSC1 for the TSC1-TSC2 pair) incubated with anti-TSC2 or anti-TSC1 antibody and protein A and protein G Sepharose overnight at 4°C; washed with 10 mM Tris pH 7.5, 1% NP-40, 1% Triton X-100, 100 mM NaCl; immunoblot with E1/2, anti-Flag or anti-TSC2

The chains behind the UniProt entries cited, without tags or fusion partners. Residues count along the entry.
UniProt P49815: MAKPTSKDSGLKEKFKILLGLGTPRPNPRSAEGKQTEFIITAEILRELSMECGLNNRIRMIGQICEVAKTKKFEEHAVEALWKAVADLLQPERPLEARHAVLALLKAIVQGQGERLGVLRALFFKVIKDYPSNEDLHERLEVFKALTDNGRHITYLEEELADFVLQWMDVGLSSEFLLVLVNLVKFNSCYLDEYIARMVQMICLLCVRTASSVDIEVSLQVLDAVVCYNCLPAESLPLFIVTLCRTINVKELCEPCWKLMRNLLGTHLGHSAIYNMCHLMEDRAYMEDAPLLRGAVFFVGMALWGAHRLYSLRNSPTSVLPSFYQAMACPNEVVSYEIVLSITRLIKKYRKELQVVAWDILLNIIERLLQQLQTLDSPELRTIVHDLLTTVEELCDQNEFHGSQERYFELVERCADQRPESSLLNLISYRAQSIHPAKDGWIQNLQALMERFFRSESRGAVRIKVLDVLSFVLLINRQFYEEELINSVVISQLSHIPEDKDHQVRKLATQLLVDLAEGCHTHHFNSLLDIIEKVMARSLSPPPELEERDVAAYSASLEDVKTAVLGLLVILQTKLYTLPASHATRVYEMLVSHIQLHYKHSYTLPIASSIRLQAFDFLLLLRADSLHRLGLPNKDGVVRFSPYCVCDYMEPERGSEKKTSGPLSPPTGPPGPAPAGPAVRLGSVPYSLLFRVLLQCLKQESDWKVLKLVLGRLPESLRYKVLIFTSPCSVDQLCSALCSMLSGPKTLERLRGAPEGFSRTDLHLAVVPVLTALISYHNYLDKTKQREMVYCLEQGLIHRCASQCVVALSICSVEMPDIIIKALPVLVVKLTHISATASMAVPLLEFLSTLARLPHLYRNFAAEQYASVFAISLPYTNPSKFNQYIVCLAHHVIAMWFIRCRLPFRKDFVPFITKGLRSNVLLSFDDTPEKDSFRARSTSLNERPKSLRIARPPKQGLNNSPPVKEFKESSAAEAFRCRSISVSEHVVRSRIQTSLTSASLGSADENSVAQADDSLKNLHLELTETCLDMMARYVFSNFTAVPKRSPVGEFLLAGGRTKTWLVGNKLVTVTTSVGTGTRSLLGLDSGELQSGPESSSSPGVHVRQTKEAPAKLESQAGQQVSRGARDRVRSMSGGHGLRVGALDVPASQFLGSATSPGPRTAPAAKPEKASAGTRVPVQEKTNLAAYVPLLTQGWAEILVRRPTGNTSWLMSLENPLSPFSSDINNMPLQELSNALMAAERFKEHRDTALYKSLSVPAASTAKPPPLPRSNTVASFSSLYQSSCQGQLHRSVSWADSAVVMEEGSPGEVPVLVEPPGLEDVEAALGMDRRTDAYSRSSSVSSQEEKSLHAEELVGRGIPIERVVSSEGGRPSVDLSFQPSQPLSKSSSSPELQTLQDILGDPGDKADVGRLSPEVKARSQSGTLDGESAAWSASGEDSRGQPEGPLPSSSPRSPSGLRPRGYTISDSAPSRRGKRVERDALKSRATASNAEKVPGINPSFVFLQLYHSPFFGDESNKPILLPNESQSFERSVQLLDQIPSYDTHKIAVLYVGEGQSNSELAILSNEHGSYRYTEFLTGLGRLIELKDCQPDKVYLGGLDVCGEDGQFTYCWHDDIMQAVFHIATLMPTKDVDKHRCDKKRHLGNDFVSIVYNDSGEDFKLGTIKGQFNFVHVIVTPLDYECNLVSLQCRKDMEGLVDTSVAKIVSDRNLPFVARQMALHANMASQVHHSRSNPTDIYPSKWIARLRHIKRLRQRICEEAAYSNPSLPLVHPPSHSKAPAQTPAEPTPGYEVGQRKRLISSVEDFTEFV
UniProt P98161, residues 4106-4303: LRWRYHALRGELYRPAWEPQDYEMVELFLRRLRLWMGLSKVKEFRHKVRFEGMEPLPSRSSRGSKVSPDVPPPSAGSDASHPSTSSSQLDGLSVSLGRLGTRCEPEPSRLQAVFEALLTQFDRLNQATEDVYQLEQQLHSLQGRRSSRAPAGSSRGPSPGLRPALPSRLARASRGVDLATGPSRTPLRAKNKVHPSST

Substance	binding
CD44-CP1 (C-terminal tail of human polycystin-1, aa 4106-4303, tagged with the extracellular and transmembrane region of CD44) (from UniProt P98161 4106-4303) (domain or fragment)	binds
Flag-CP1 (soluble C-terminal tail of human polycystin-1, aa 4106-4303) (from UniProt P98161 4106-4303) (domain or fragment)	binds

Reference: paper PMC2821926
